Experimental data taken from PubChem BioAssay AID256 (DTP/NCI, 2004).
The list shows only some results of the screen, not a fair sample: it gathers tests that were run many times, whatever their T/C, doses with no T/C, and many T/C values between a quarter and a half above the control. Further doses and runs are listed elsewhere. T/C gives the treated animals as a percentage of the vehicle group. Some entries give survivors of the animals treated and no T/C: the source holds a T/C of zero for them, seemingly a mark for toxic or unscored doses. Some doses without a T/C left all or most animals alive at the check, yet need not have been tolerated: survival well below the control is almost never listed, so the zero probably covers shortened survival too. Counts of survivors are from the toxicity check (mostly the fifth day) where no day follows; animals may have died later. Schedules are NCI's codes, read here as Q, the interval in days (D) or hours (H), X, the number of doses.

Tested on: CD2F1 mice, L1210 leukemia ip, survival T/C
Experiment: NCI In Vivo Anticancer Drug Screen. Data for tumor model L1210 Leukemia (intraperitoneal) in CD2F1 (CDF1) mice
Settings: T/C endpoint: mean survival time, higher T/C = longer survival
Outline: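 Ratio T/C, where T is the treated-group value and C the vehicle-dosed control value, from mice implanted with a transplantable tumor.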

[1] = dose: 400.0 mg/kg/injection, schedule: Q04DX003 (ip), vehicle: saline with Tween-80

## Cn1ccc(CON)n1
dose: 400.0 mg/kg/injection, schedule: Q01DX009 (ip), vehicle: saline
  survivor count: 1 of 6

## CC1(C)CC(=O)C=C(NCc2ccccc2)C1
[1]
  survivor count: 6 of 6

## O=C(O)c1cc(F)ccc1Cl
dose: 400.0 mg/kg/injection, schedule: Q04DX002 (ip), vehicle: saline with Tween-80
  survivor count: 2 of 3

## CN(C)Cc1cccc(CN(C)C)c1O
dose: 200.0 mg/kg/injection, schedule: Q01DX001 (ip), vehicle: saline
  survivor count: 2 of 6
dose: 400.0 mg/kg/injection, schedule: Q01DX001 (ip), vehicle: saline
  survivor count: 0 of 6

## O=C(CCl)Nc1cccc(Cl)c1
dose: 400.0 mg/kg/injection, schedule: Q01DX009 (ip), vehicle: saline with Tween-80
  survivor count: 6 of 6

## N\C([S-])=N/N=C\C(=N/N=C(\N)[S-])C(O)C(O)C(O)CO.[Ni+2] (stereo not given)
dose: 322.0 mg/kg/injection, schedule: Q01DX009 (ip), vehicle: saline with Tween-80
  survivor count: 0 of 6

## O=C1C=C(O)c2ccccc2C1=O
dose: 100.0 mg/kg/injection, schedule: Q04DX003 (ip), vehicle: saline with Tween-80
  survivor count: 0 of 3
dose: 200.0 mg/kg/injection, schedule: Q04DX003 (ip), vehicle: saline with Tween-80
  survivor count: 3 of 3
[1]
  survivor count: 0 of 3
